For experiment [1], the target named is Plasmodium falciparum actin I (Plasmodium falciparum) (UniProt Q8I4X0). Description: cryo-EM structure; actin I filaments in vitreous ice; single-particle based helical reconstruction, 25 Å (FSC 0.5); both purified.
Experiment [2] shares this target. Nature of the experiment: electron microscopy of negatively stained filaments; actin 7–13 µM polymerised overnight at room temperature in polymerisation buffer with 5–7 µM jasplakinolide (JAS); both purified.
Experiment [3] shares this target. Nature of the experiment: electron microscopy of negatively stained filaments; actin 7–13 µM polymerised overnight at room temperature in polymerisation buffer (50 mM KCl, 2 mM MgCl2, 1 mM ATP final), without JAS; both purified.
For experiment [4] the target is unchanged. Nature of the experiment: dynamic light scattering; actin I and II at 8.5–24 µM, 298 K, 5 mM HEPES pH 7.5, 0.5 mM ATP, 2 mM DTT, 0.2 mM CaCl2; followed over 48 h at room temperature; both purified.
The target is the same in experiment [5]. Description: native gel or EMSA; native PAGE with 1 or 5 mM MgCl2, or 5 mM MgCl2 and 50 mM KCl, in the sample; ATP and ADP forms, 0 and 48 h; both purified. In general terms: In EMSA bound probe runs differently from free probe, usually more slowly.
Experiment [6] has the same target. Nature of the experiment: native gel or EMSA; native PAGE after 1 h at 298 K without hexokinase and D-glucose (control of the ADP exchange); data not shown; both purified.

Chains of the proteins cited; added tags and fusions are not shown.
UniProt Q8I4X0: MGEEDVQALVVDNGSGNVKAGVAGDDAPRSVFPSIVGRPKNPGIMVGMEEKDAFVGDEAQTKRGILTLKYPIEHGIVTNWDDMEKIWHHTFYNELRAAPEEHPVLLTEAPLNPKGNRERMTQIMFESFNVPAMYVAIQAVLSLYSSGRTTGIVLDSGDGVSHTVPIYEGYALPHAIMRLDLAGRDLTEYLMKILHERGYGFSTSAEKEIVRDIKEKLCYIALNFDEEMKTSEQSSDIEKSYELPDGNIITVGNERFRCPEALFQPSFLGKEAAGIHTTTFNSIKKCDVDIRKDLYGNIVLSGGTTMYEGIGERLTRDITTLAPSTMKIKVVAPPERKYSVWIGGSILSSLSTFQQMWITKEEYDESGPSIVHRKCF

These are yes or no findings as the source states them, for the method shown. Some binding calls cover weakened binding; strength is not graded here.

Take “Plasmodium falciparum actin I (from UniProt Q8I4X0 1-376)”: the binding result in experiment [1] is on record as “binds”; in experiment [2], “binds”; in experiment [3] it was “binds”; in experiment [4], “binds”; in experiment [5] it was “binds”; in experiment [6], “binds weakly”.

Values taken from PMC3990709.
